# From publication PMC4423239
# Experiments:
# [1] = target: T1, hC5a WT (R&D Systems) (human) (UniProt P01031); assay: SPR; conditions: all L-nucleotides (Spiegelmer); L-RNA with L-deoxy at dU7, dG14, dA15, dU28, dU30, dC38; SPR (Biacore 2000, C5a immobilized on CM5): 20 mM Tris pH 7.4, 150 mM NaCl, 5 mM KCl, 1 mM MgCl2, 1 mM CaCl2, 37 C; commercial protein; synthetic backbone
# T1 sequence (looked up, limits assumed): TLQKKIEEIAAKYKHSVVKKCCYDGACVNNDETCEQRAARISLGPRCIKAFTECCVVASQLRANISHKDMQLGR
# hC5a(Cys704Arg) (human) = target: T2, hC5a(Cys704Arg) (human) (UniProt P01031); assay: SPR; conditions: all L-nucleotides (Spiegelmer); L-RNA with L-deoxy at dU7, dG14, dA15, dU28, dU30, dC38; SPR (Biacore 2000, C5a immobilized on CM5): 20 mM Tris pH 7.4, 150 mM NaCl, 5 mM KCl, 1 mM MgCl2, 1 mM CaCl2, 37 C; recombinant protein; protein details: Trx-His6-TEV tag, removed with TEV; synthetic backbone
# T2 sequence (looked up, limits assumed): T1 sequence (looked up, limits assumed) with C27R
# mC5a (mouse) [2] = target: T3, mC5a (mouse) (UniProt P06684); assay: SPR; conditions: all L-nucleotides (Spiegelmer), L-RNA with L-deoxy at dU7, dG14, dA15, dU28, dU30, dC38, SPR (Biacore 2000, C5a immobilized on CM5): 20 mM Tris pH 7.4, 150 mM NaCl, 5 mM KCl, 1 mM MgCl2, 1 mM CaCl2, 37 C, recombinant protein, protein details: Trx-His6-TEV tag, removed with TEV, synthetic backbone
# T3 sequence (looked up, limits assumed): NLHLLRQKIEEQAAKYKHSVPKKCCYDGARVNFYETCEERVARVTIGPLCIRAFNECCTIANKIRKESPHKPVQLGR
# [3] = target: T4, hC5a Ser693 mutant(s) S693A,C704R (human) (UniProt P01031); assay: SPR competition; conditions: Ser693 = mouse Ser697; all L-nucleotides (Spiegelmer); L-RNA with L-deoxy at dU7, dG14, dA15, dU28, dU30, dC38; recombinant protein; protein details: Trx-His6-TEV tag, removed with TEV; synthetic backbone
# T4 sequence (looked up, limits assumed): T1 sequence (looked up, limits assumed) with S16A, C27R
# [4] = target: hC5a Val705 mutant(s) (human) (UniProt P01031); assay: SPR competition; conditions: no reduced affinity; all L-nucleotides (Spiegelmer); L-RNA with L-deoxy at dU7, dG14, dA15, dU28, dU30, dC38; recombinant protein; protein details: Trx-His6-TEV tag, removed with TEV; synthetic backbone
# [5] = target: T5, mC5a Ser697 mutant(s) S697A (mouse) (UniProt P06684); assay: SPR competition; conditions: Ser697 crucial for binding; all L-nucleotides (Spiegelmer); L-RNA with L-deoxy at dU7, dG14, dA15, dU28, dU30, dC38; recombinant protein; protein details: Trx-His6-TEV tag, removed with TEV; synthetic backbone
# T5 sequence (looked up, limits assumed): T3 sequence (looked up, limits assumed) with S19A
# [6] = system: mC5a Val709 mutant(s) V709A (mouse); assay: SPR competition; conditions: no reduced affinity; all L-nucleotides (Spiegelmer); L-RNA with L-deoxy at dU7, dG14, dA15, dU28, dU30, dC38; recombinant protein; protein details: Trx-His6-TEV tag, removed with TEV; synthetic backbone
# mC5a (mouse) [7] = target: T3, mC5a (mouse); assay: crystal structure (1.8 A); conditions: Ca2+ (3 per aptamer), Mg2+ (1 per aptamer); all L-nucleotides (Spiegelmer); L-RNA with L-deoxy at dU7, dG14, dA15, dU28, dU30, dC38; recombinant protein; protein details: Trx-His6-TEV tag, removed with TEV; synthetic backbone
# mC5a-desArg (mouse) = target: T6, mC5a-desArg (mouse) (UniProt P06684); assay: crystal structure (2.0 A); conditions: Ca2+, Mg2+; all L-nucleotides (Spiegelmer); L-RNA with L-deoxy at dU7, dG14, dA15, dU28, dU30, dC38; recombinant protein; protein details: Trx-His6-TEV tag, removed with TEV; synthetic backbone
# T6 sequence (looked up, limits assumed): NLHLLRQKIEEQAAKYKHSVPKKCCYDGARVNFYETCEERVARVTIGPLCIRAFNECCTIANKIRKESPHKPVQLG
sequence,measurement,setting,value
GCGAUGUGGUGGUGAAGGGUUGUUGGGUGUCGACGCACGC [NOX-D20],binding result,[1],binds
same,binding result,hC5a(Cys704Arg) (human),binds
same,binding result,"mC5a (mouse) [2]; 1 mM Ca2+, 1 mM Mg2+",binds
same,binding result,mC5a (mouse) [2]; >2 mM EDTA,no binding
same,binding result,mC5a (mouse) [2]; no Ca2+ in dissociation buffer (complex quickly dissociates),binds more weakly
same,binding result,mC5a (mouse) [2]; no K+ (equal binding),binds
same,binding result,"mC5a (mouse) [2]; no K+, with Li+ (equal binding)",binds
same,binding result,[3],binds more weakly
same,binding result,[4],binds
same,binding result,[5],binds more weakly
same,binding result,[6],binds
same,binding result,mC5a (mouse) [7],binds
same,binding result,mC5a-desArg (mouse),binds

# Changes are numbered by the printed parent chain. For some of these results: A negative result means that nothing was seen under these conditions. For some of these results: Tags and fusion partners may be left off the protein sequences shown. For some of these results: The exact form of at least one protein or probe is not confirmed. For some of these results: A weaker result is weaker than the reference pair of the same experiment. For some of these results: At least one verdict rests on a figure or table, not on a statement of the authors.
